Measured values as given in US10800792B2, “Inhibitors of Bruton's tyrosine kinase and method of their use” (JANSSEN PHARMACEUTICA NV, priority 2015, dated 2020).
The structures given here were assigned with low confidence; some may be wrong.

Amino acid sequences for entries named in this document (tags omitted). Residues count along the entry.
UniProt Q06187, 389-659 limits assumed: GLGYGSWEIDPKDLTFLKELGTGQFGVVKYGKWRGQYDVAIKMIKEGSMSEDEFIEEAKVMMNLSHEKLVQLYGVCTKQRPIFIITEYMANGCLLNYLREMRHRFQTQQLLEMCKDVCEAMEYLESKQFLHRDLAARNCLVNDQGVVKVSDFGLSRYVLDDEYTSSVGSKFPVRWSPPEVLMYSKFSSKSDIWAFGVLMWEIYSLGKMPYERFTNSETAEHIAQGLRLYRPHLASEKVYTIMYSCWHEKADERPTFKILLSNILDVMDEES

Target: unphosphorylated-BTK kinase domain (UP-BTK), GST-tagged human BTK (389-659aa) (Homo sapiens (Human), UniProt Q06187)
Assay: BTK kinase Lanthascreen binding assay
Settings: Lanthascreen tracer competition, 60 minutes incubation; pIC50 = negative log of the IC50 in molar

C=CC(=O)N1CCC[C@@H](NC(=O)c2sc3nccc4c3c2NC(=O)N4c2ccnc(-c3ccccc3)c2C)C1
BTK_I_binding pIC50: <6
